Record: PubChem BioAssay AID504808 (Drosophila RNAi Screening Center, 2011)
In all, the deposit lists about 21,000 reagents; shown is an unselected part of those that have a named target and a result. Of all reagents, 18 (0.084%) got an active call. 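Raw counts without plate normalisation, one of two replicates; the ratio scores behind the calls were not deposited.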 A plus sign joins genes that one reagent is predicted to hit. The record does not give: the amount of reagent, the time to read-out.

Test: 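Chromatin factors that keep E2F targets switched off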 (primary screen)
System: Drosophila S2 cells
Reagent: long dsRNA against Drosophila genes
Measured: 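Firefly luciferase driven by E2F sites, normalised to Renilla luciferase on the same minimal promoter, measured by plate reader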
Reading the numbers: E2F firefly: higher = more E2F reporter activity; Renilla normaliser: higher = more normaliser reporter signal
Rule for the call: 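Called active if the normalised E2F reporter went up by over 50%; the cutoff is arbitrary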

Nipped-B [DRSC07815] | E2F firefly, rep 1: 1.07e5; Renilla normaliser, rep 1: 4081; outcome: inactive
grh (grainy head) [DRSC05680] | E2F firefly, rep 1: 1.78e5; Renilla normaliser, rep 1: 6172; outcome: inactive
grh (grainy head) [DRSC05683] | E2F firefly, rep 1: 1.54e5; Renilla normaliser, rep 1: 4809; outcome: inactive
grh (grainy head) [DRSC07624] | E2F firefly, rep 1: 75036; Renilla normaliser, rep 1: 3575; outcome: inactive
grh (grainy head) [DRSC07625] | E2F firefly, rep 1: 1.56e5; Renilla normaliser, rep 1: 5039; outcome: inactive
RhoGEF64C (Rho guanine nucleotide exchange factor at 64C) [DRSC08318] | E2F firefly, rep 1: 70057; Renilla normaliser, rep 1: 3503; outcome: inactive
RhoGEF64C (Rho guanine nucleotide exchange factor at 64C) [DRSC08319] | E2F firefly, rep 1: 99075; Renilla normaliser, rep 1: 4075; outcome: inactive
CG31245 [DRSC15498] | E2F firefly, rep 1: 1.43e5; Renilla normaliser, rep 1: 5688; outcome: inactive
Cyp4e2 (Cytochrome P450 4e2) [DRSC07371] | E2F firefly, rep 1: 2740; Renilla normaliser, rep 1: 202; outcome: inactive
Arl5 (ADP-ribosylation factor-like 5) [DRSC10785] | E2F firefly, rep 1: 75653; Renilla normaliser, rep 1: 3346; outcome: inactive
Amt (Ammonium transporter) [DRSC16055] | E2F firefly, rep 1: 1.12e5; Renilla normaliser, rep 1: 6313; outcome: inactive
dgt3 (dim gamma-tubulin 3) [DRSC04349] | E2F firefly, rep 1: 83475; Renilla normaliser, rep 1: 3128; outcome: inactive
CG3225 [DRSC00578] | E2F firefly, rep 1: 1.00e5; Renilla normaliser, rep 1: 4864; outcome: inactive
CG4646 [DRSC06876] | E2F firefly, rep 1: 1.01e5; Renilla normaliser, rep 1: 4188; outcome: inactive
Mkp + CG34140 [DRSC08585] | E2F firefly, rep 1: 73223; Renilla normaliser, rep 1: 3370; outcome: inactive
Prosbeta5R1 (Proteasome beta5 subunit-related 1) [DRSC04581] | E2F firefly, rep 1: 1.04e5; Renilla normaliser, rep 1: 4501; outcome: inactive
Fib (Fibrillarin) [DRSC04614] | E2F firefly, rep 1: 95663; Renilla normaliser, rep 1: 4641; outcome: inactive
CG34263 [DRSC07866] | E2F firefly, rep 1: 1.32e5; Renilla normaliser, rep 1: 4022; outcome: inactive
CCHa2-R (CCHamide-2 receptor) [DRSC04825] | E2F firefly, rep 1: 1.27e5; Renilla normaliser, rep 1: 6516; outcome: inactive
CCHa2-R (CCHamide-2 receptor) [DRSC04870] | E2F firefly, rep 1: 1.10e5; Renilla normaliser, rep 1: 4518; outcome: inactive
CCHa2-R (CCHamide-2 receptor) [DRSC04871] | E2F firefly, rep 1: 1.04e5; Renilla normaliser, rep 1: 4360; outcome: inactive
otk2 (off-track2) [DRSC07303] | E2F firefly, rep 1: 96915; Renilla normaliser, rep 1: 4299; outcome: inactive
Dhc98D (Dynein heavy chain at 89D) [DRSC16645] | E2F firefly, rep 1: 1.19e5; Renilla normaliser, rep 1: 6901; outcome: inactive
Smn (survival motor neuron) [DRSC10223] | E2F firefly, rep 1: 81674; Renilla normaliser, rep 1: 3929; outcome: inactive
CG34248 [DRSC09426] | E2F firefly, rep 1: 1.38e5; Renilla normaliser, rep 1: 4615; outcome: inactive
CG17715 [DRSC11950] | E2F firefly, rep 1: 1.34e5; Renilla normaliser, rep 1: 6733; outcome: inactive
Or85f (Odorant receptor 85f) [DRSC16769] | E2F firefly, rep 1: 1.33e5; Renilla normaliser, rep 1: 6157; outcome: inactive
CG14610 + asRNA:CR42738 [DRSC12554] | E2F firefly, rep 1: 1.28e5; Renilla normaliser, rep 1: 6678; outcome: inactive
